Laboratory results from patent publication US20100021384A1 (INSTITUT PASTEUR, published 2010).
Positions count from the first letter of the chain named. No constants are given. Whether binding was seen depends on the method and setting. Some results given as binding are weak or reduced against the parent protein; the word gives no strength.

Protein sequences, listed by entry. Tags and fused reporters are not part of them.
UniProt P14136: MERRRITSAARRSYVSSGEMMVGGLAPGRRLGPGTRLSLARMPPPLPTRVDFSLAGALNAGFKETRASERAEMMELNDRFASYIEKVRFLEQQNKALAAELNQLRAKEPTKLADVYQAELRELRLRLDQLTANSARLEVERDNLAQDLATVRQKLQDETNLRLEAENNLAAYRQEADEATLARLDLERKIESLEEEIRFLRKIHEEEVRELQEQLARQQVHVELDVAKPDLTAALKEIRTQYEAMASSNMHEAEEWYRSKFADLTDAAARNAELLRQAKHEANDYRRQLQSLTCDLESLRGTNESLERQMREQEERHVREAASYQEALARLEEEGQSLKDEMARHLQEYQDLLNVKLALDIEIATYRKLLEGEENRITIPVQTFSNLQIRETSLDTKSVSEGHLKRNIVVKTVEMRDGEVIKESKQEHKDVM

Tests used:
[1] = target: GFAP (glial fibrillary acidic protein) from normal human brain (human) (UniProt P14136); test: ELISA on coated GFAP
[2] = target: GFAP (glial fibrillary acidic protein) from normal human brain (human) (UniProt P14136); test: ELISA screening of periplasmic clones on coated GFAP
[3] = target: GFAP (glial fibrillary acidic protein) from normal human brain (human) (UniProt P14136); test: competition ELISA in solution (Friguet method), GFAP in solution, GFAP-coated plate

B1: VHH-E9 (VHH)
VHH: DVQLQVSGGGSVQPGGSLRLSCAASGFTFSNYAMYWLRQAPGKGIEWVSRIGPGGSHTEYADSVKGRFTISRDNAKNTLSLQMNSLKPEDTAVYYCAITQQGSGRGQGTQVTVSS
notes: Alpaca VHH selected by ribosome display against human GFAP; expressed in E. coli periplasm from pET22 with a His-tag and purified by IMAC; same molecule; also called anti-GFAP VHH-E9; native VHH-E9; not shown: His-tag (His6) from pET22 expression
For B1, the binding [1] was “binds” and the binding [2] was “binds”.

B2: VHH-A10 (VHH)
VHH: DVQLRASGGGLVQPGGSLRLSCAASGFTFSNYAMYWLRQAPGKGIEWVSRIGPGGSHTEYADSVKGRFTISRDNAKNTLSLQMNSLKPEDTAVYYCAITQQGSGRGQETQVTVSSAAALEHHHHHH
notes: Alpaca VHH selected by ribosome display against human GFAP; expressed in E. coli periplasm from pET22 with a His-tag and purified by IMAC; also called anti-GFAP VHH-A10; not shown: His-tag from pET22 expression
With B2 the binding [1] was “binds” and the binding [2] was “binds”.

B3: VHH-E3 (VHH)
VHH: B1 VHH with S25P, T69A, V93A, Q107R
notes: Alpaca VHH selected by ribosome display against human GFAP; expressed in E. coli periplasm from pET22 with a His-tag and purified by IMAC; also called anti-GFAP VHH-E3; not shown: His-tag from pET22 expression
With B3 the binding [1] was “binds”, the binding [3] was “binds” and the binding [2] was “binds”.
